Values from PubChem BioAssay AID602196 (INSERM, 2012)

Purpose: 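Modifiers of cisplatin sensitivity in A549 cells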
System: human A549 lung cancer cells
Reagent: siRNA pair against human genes
Duration: 48 h transfection before cisplatin; time from cisplatin to read-out not stated
Challenge: cisplatin at a dose killing half of control-siRNA cells; exact dose and duration not given
Measured: 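Cisplatin cell death as a shift from the 50% death seen with control siRNA; siRNAs toxic or growth-blocking alone scored 0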
Direction: two-siRNA summed score (-2 to +2): higher = both siRNAs protect from cisplatin killing; -2 means both sensitise
Hit rule: 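siRNAs harmful alone (LDH or WST-1) get 0; others get +1 for less and -1 for more cisplatin killing; genes are active when the two siRNAs give the same sign, summing to ±2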
Calls: active = both siRNAs shift cisplatin killing the same way; inactive = no consistent shift, or siRNA harmful alone
The deposit covers about 23,000 reagents; this is an unselected part. In the full data, 455 (2%) were called active. 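Active includes both protection and sensitisation; some change values fall well beyond the stated -50 to +50 range.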 Unmarked entries are inactive. Further read-outs or replicates are left out here. Not given: the amount of reagent.

LOC400944 scored two-siRNA summed score (-2 to +2) = 0. For BLTP2 the deposit lists two-siRNA summed score (-2 to +2) = 0. For XKR8, the entry reads two-siRNA summed score (-2 to +2) = 0. Silencing of KCNQ3 resulted in: two-siRNA summed score (-2 to +2) = 0. ZNF69 scored two-siRNA summed score (-2 to +2) = 0. With knock-down of LOC387888, the screen gave two-siRNA summed score (-2 to +2) = 0.

Against NDUFA7, the entry reads two-siRNA summed score (-2 to +2) = 0. SPSB4 showed two-siRNA summed score (-2 to +2) = 0.

2 entries already listed, sorted by “two-siRNA summed score (-2 to +2)”, lowest first:
XKR8 → two-siRNA summed score (-2 to +2) = 0
KCNQ3 → two-siRNA summed score (-2 to +2) = 0

More reagents:
For LOC253970, the entry reads two-siRNA summed score (-2 to +2) = 0. Knock-down of LIN37 resulted in: two-siRNA summed score (-2 to +2) = 0. KCNE2 gave two-siRNA summed score (-2 to +2) = 1. Depletion of CTAG1B gave: two-siRNA summed score (-2 to +2) = 0.
